In the supplement of paper PMC8728848:
The list shows a part of the results.

What was measured:
Test in all cases: glycan array binding signal (z-score within array); higher = stronger binding
Conditions in all cases: glycan notation: IUPAC condensed, linker removed
[1] = target: Fuc(a1-2)[GalNAc(a1-3)]Gal(b1-3)GlcNAc(b1-6)GalNAc
Method in brief: (§1)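 Columns mapping to the same glycan were averaged after glycan names were converted to IUPAC-condensed notation. The data come from 3228 arrays in the Consortium for Functional Glycomics database, limited to those with an available protein sequence. Binding is reported as a within-array Z-score averaged across arrays of one protein sequence and across linkers.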

[2] = target: Fuc(a1-2)[GalNAc(a1-3)]Gal(b1-4)Glc
Method in brief: as §1

[3] = target: Fuc(a1-2)[GalNAc(a1-3)]Gal(b1-4)GlcNAc
Method in brief: as §1

[4] = target: Fuc(a1-2)[GalNAc(a1-3)]Gal(b1-4)GlcNAc(b1-2)Man
Method in brief: as §1

[5] = target: Fuc(a1-2)[GalNAc(a1-3)]Gal(b1-4)GlcNAc(b1-2)Man(a1-3)[Fuc(a1-2)[GalNAc(a1-3)]Gal(b1-4)GlcNAc(b1-2)Man(a1-6)]Man(b1-4)GlcNAc(b1-4)GlcNAc
Method in brief: as §1

[6] = target: Fuc(a1-2)[GalNAc(a1-3)]Gal(b1-4)GlcNAc(b1-2)Man(a1-3)[Fuc(a1-2)[GalNAc(a1-3)]Gal(b1-4)GlcNAc(b1-2)Man(a1-6)]Man(b1-4)GlcNAc(b1-4)[Fuc(a1-6)]GlcNAc
Method in brief: as §1

[7] = target: Fuc(a1-2)[GalNAc(a1-3)]Gal(b1-4)GlcNAc(b1-3)Gal(b1-4)GlcNAc
Method in brief: as §1

[8] = target: Fuc(a1-2)[GalNAc(a1-3)]Gal(b1-4)GlcNAc(b1-3)Gal(b1-4)GlcNAc(b1-3)Gal(b1-4)GlcNAc
Method in brief: as §1

[9] = target: Fuc(a1-2)[GalNAc(a1-3)]Gal(b1-4)GlcNAc(b1-3)GalNAc
Method in brief: as §1

[10] = target: Fuc(a1-2)[GalNAc(a1-3)]Gal(b1-4)GlcNAc(b1-3)[Fuc(a1-2)[GalNAc(a1-3)]Gal(b1-4)GlcNAc(b1-6)]GalNAc
Method in brief: as §1

[11] = target: Fuc(a1-2)[GalNAc(a1-3)]Gal(b1-4)GlcNAc(b1-6)GalNAc
Method in brief: as §1

[12] = target: Fuc(a1-2)[GalNAc(a1-3)]Gal(b1-4)[Fuc(a1-3)]GlcNAc
Method in brief: as §1

[13] = target: Fuc(a1-2)[GalNAc(a1-3)]Gal(b1-4)[Fuc(a1-3)]GlcNAc(b1-3)GalNAc
Method in brief: as §1

[14] = target: Fuc(a1-2)[GalNAc(a1-4)]Gal(b1-4)GlcNAc
Method in brief: as §1

[15] = target: Fuc(a1-2)[GalNAc(b1-3)]Gal
Method in brief: as §1

Fuc(a1-3)GlcNAc = target: Fuc(a1-3)GlcNAc
Method in brief: as §1

[16] = target: Fuc(a1-3)[Gal(b1-4)]Glc6S
Method in brief: as §1

[17] = target: Fuc(a1-3)[Gal(b1-4)]GlcNAc
Method in brief: as §1

[18] = target: Fuc(a1-3)[Gal(b1-4)]GlcNAc(b1-2)Man
Method in brief: as §1

[19] = target: Fuc(a1-3)[Gal(b1-4)]GlcNAc(b1-2)Man(a1-3)[Fuc(a1-3)[Gal(b1-4)]GlcNAc(b1-2)Man(a1-6)]Man(b1-4)GlcNAc(b1-4)GlcNAc
Method in brief: as §1

[20] = target: Fuc(a1-3)[Gal(b1-4)]GlcNAc(b1-2)Man(a1-3)[Fuc(a1-3)[Gal(b1-4)]GlcNAc(b1-2)Man(a1-6)]Man(b1-4)GlcNAc(b1-4)[Fuc(a1-6)]GlcNAc
Method in brief: as §1

[21] = target: Fuc(a1-3)[Gal(b1-4)]GlcNAc(b1-3)Gal(b1-3)[Fuc(a1-4)]GlcNAc
Method in brief: as §1

[22] = target: Fuc(a1-3)[Gal(b1-4)]GlcNAc(b1-3)Gal(b1-4)[Fuc(a1-3)]GlcNAc
Method in brief: as §1

[23] = target: Fuc(a1-3)[Gal(b1-4)]GlcNAc(b1-3)Gal(b1-4)[Fuc(a1-3)]GlcNAc(b1-3)Gal(b1-4)[Fuc(a1-3)]GlcNAc
Method in brief: as §1

[24] = target: Fuc(a1-3)[Gal(b1-4)]GlcNAc(b1-3)GalNAc
Method in brief: as §1

[25] = target: Fuc(a1-3)[Gal(b1-4)]GlcNAc(b1-6)GalNAc
Method in brief: as §1

[26] = target: Fuc(a1-3)[Gal(b1-4)]GlcNAc(b1-6)[Gal(b1-3)GlcNAc(b1-3)]Gal(b1-4)Glc
Method in brief: as §1

[27] = target: Fuc(a1-3)[Gal(b1-4)]GlcNAc6S
Method in brief: as §1

[28] = target: Fuc(a1-3)[Gal3S(b1-4)]Glc
Method in brief: as §1

[29] = target: Fuc(a1-3)[Gal3S(b1-4)]GlcNAc
Method in brief: as §1

[30] = target: Fuc(a1-3)[Gal3S(b1-4)]GlcNAc6S
Method in brief: as §1

[31] = target: Fuc(a1-3)[GalNAc(b1-4)]GlcNAc
Method in brief: as §1

[32] = target: Fuc(a1-3)[GalNAc(b1-4)]GlcNAc6S
Method in brief: as §1

Fuc(a1-4)GlcNAc = target: Fuc(a1-4)GlcNAc
Method in brief: as §1

Fuc(b1-3)GlcNAc = target: Fuc(b1-3)GlcNAc
Method in brief: as §1

Gal(a1-2)Gal = target: Gal(a1-2)Gal
Method in brief: as §1

Gal(a1-3)Gal = target: Gal(a1-3)Gal
Method in brief: as §1

Gal(a1-3)Gal(b1-3)GlcNAc = target: Gal(a1-3)Gal(b1-3)GlcNAc
Method in brief: as §1

[33] = target: Gal(a1-3)Gal(b1-3)GlcNAc(b1-2)Man
Method in brief: as §1

[34] = target: Gal(a1-3)Gal(b1-3)GlcNAc(b1-2)Man(a1-3)[Gal(a1-3)Gal(b1-3)GlcNAc(b1-2)Man(a1-6)]Man(b1-4)GlcNAc(b1-4)GlcNAc
Method in brief: as §1

[35] = target: Gal(a1-3)Gal(b1-3)GlcNAc(b1-3)GalNAc
Method in brief: as §1

[36] = target: Gal(a1-3)Gal(b1-3)GlcNAc(b1-6)GalNAc
Method in brief: as §1

[37] = target: Gal(a1-3)Gal(b1-3)[Fuc(a1-4)]GlcNAc(b1-2)Man(a1-3)[Gal(a1-3)Gal(b1-3)[Fuc(a1-4)]GlcNAc(b1-2)Man(a1-6)]Man(b1-4)GlcNAc(b1-4)GlcNAc
Method in brief: as §1

Gal(a1-3)Gal(b1-4)Glc = target: Gal(a1-3)Gal(b1-4)Glc
Method in brief: as §1

Gal(a1-3)Gal(b1-4)GlcNAc = target: Gal(a1-3)Gal(b1-4)GlcNAc
Method in brief: as §1

B1: EULS2 M1 (Oryza sativa) (protein)
chain: MVYCRANPNYAMTARNGAVVLAPANPKDEYQHWIKDMRWSTSIKDEEGYPAFALVNKATGQAIKHSLGQSHPVRLVPYNPEVMDESVLWTESRDVGNGFRCIRMVNNIYLNFDAFHGDKYHGGVRDGTDIVLWKLCEGDNQRWKIQPYYILEQKLISEEDLNSAVDHHHHHH
glycan array binding signal (z-score) [1]: 0.727 | glycan array binding signal (z-score) [2]: 1.69 | glycan array binding signal (z-score) [3]: -0.05 | glycan array binding signal (z-score) [4]: -1 | glycan array binding signal (z-score) [5]: -0.654 | glycan array binding signal (z-score) [6]: 1.96 | glycan array binding signal (z-score) [7]: -0.473 | glycan array binding signal (z-score) [8]: -1.42 | glycan array binding signal (z-score) [9]: -0.543 | glycan array binding signal (z-score) [10]: -0.925 | glycan array binding signal (z-score) [11]: -0.79 | glycan array binding signal (z-score) [12]: 0.407 | glycan array binding signal (z-score) [13]: -1.61 | glycan array binding signal (z-score) [14]: -0.015 | glycan array binding signal (z-score) [15]: -0.425 | glycan array binding signal (z-score) (Fuc(a1-3)GlcNAc): -0.551 | glycan array binding signal (z-score) [16]: -0.049 | glycan array binding signal (z-score) [17]: 0.301 | glycan array binding signal (z-score) [18]: -0.708 | glycan array binding signal (z-score) [19]: 0.033 | glycan array binding signal (z-score) [20]: -0.383 | glycan array binding signal (z-score) [21]: -0.151 | glycan array binding signal (z-score) [22]: -0.138 | glycan array binding signal (z-score) [23]: -0.074 | glycan array binding signal (z-score) [24]: -0.322 | glycan array binding signal (z-score) [25]: -0.281 | glycan array binding signal (z-score) [26]: -0.03 | glycan array binding signal (z-score) [27]: -0.261 | glycan array binding signal (z-score) [28]: -0.213 | glycan array binding signal (z-score) [29]: -0.555 | glycan array binding signal (z-score) [30]: 0.046 | glycan array binding signal (z-score) [31]: 0.088 | glycan array binding signal (z-score) [32]: -0.713 | glycan array binding signal (z-score) (Fuc(a1-4)GlcNAc): -0.4 | glycan array binding signal (z-score) (Fuc(b1-3)GlcNAc): 0.184 | glycan array binding signal (z-score) (Gal(a1-2)Gal): 0.889 | glycan array binding signal (z-score) (Gal(a1-3)Gal): 0.188 | glycan array binding signal (z-score) (Gal(a1-3)Gal(b1-3)GlcNAc): 3.45 | glycan array binding signal (z-score) [33]: -0.609 | glycan array binding signal (z-score) [34]: 0.085 | glycan array binding signal (z-score) [35]: -1.23 | glycan array binding signal (z-score) [36]: 0.439 | glycan array binding signal (z-score) [37]: 0.389 | glycan array binding signal (z-score) (Gal(a1-3)Gal(b1-4)Glc): 0.535 | glycan array binding signal (z-score) (Gal(a1-3)Gal(b1-4)GlcNAc): 0.196
